Data reported in PMC7288058, “Modulating the Properties of Fe(III) Macrocyclic MRI Contrast Agents by Appending Sulfonate or Hydroxyl Groups” (Molecules, 2020).

Legend:
[1] = Variable-temperature 17O-NMR resonance broadening; type: physicochemical; conditions: for 17O resonance peak width relative to maximum peak width of Fe(CDTA): neutral pH; for 17O resonance peak width relative to Fe(CDTA): pH 3
[2] = Benzoate hydroxylation fluorescence assay (hydroxyl radical production with ascorbate and H2O2); conditions: for hydroxyl radical production / hydroxylation of aromatics: ascorbate and peroxide present; for % Benzoate Oxidation: normalized to amount produced by Fe(EDTA), 50.0 μM complex, ascorbate, H2O2, pH 7.4, 37 °C, 1 h

Row | Compound | 17O resonance peak width relative to maximum peak width of Fe(CDTA) [1] | 17O resonance peak width relative to Fe(CDTA) [1] | hydroxyl radical production / hydroxylation of aromatics [2] | % Benzoate Oxidation [2]
1 | C[C@H]([O-])CN1CCN(CCCS(=O)(=O)[O-])CCN(C[C@H](C)O)CC1.O.[Fe+3] [Fe(L1)(OH2)] | ~1% | ~7% | does not produce hydroxylation of aromatics | 3.57 ± 0.18%
2 | C[C@H]([O-])CN1CCN(C[C@H](C)O)CCN(C[C@H](C)O)CC1.[Fe+3] [Fe(L2)] |  |  | does not produce hydroxylation of aromatics | 3.76 ± 0.85%
3 | C[C@H]([O-])CN1CCN(Cc2ccccc2)CCN(C[C@H](C)O)CC1.O.[Fe+3] [Fe(L3)(OH2)] | about 15% | about 21% |  | 
